The values below come from article PMC4013092.

Assay [1] has as its target H2A peptide (H2A.1 residues 120–132, unmodified) (S. pombe) (UniProt P04909). In words: condition: 5–10 µg of Mdb1 with 2 µg of peptide in 200 µl; pull-down; biotinylated peptide (2 µg) incubated with 5–10 µg purified Mdb1 in 200 µl of 50 mM Tris-HCl pH 7.5, 100 mM NaCl, 0.05% NP-40 at 4°C for 2 hours; pulled down with streptavidin Dynabeads M-280; SDS-PAGE and Coomassie staining; both purified.

For assay [2], the target named is γH2A peptide (H2A.1 residues 120–132, phosphorylated on Ser-129) (S. pombe) (UniProt P04909). The assay is described as above.

No constants are given. Whether binding was seen depends on the method and setting. Where a sequence is shown, tags or fusion partners need not be part of it.

B1: Mdb1-S392A (His6-tagged recombinant Mdb1) (protein, UniProt O14079 1-624)
chain: MEIQFGNQRCRMVNSGGFLATDGSHLKEMETDDVLVEFLNIEHQLFIRNIRAIVKIADTTVLPSASDKKLLYYVFDETRVRINDTPVIFSKLEEDNANVNEGSKMGVMTVPNTPQKPNLQQQKFEAINANEDQIDYSSNLEQNYNSLIRQGSDQVIPLSRFASEKSALELEKELFSERIPESQSAAEPVLKVENSENDLDEKLVLDGQHVEGDHSSDTEEEVVSEDQKQLNKTDDESTFIESHQIYIQGETKSPSSVSQSLSGDPSLKPAEVFDRKQSAEINSPIEKDVNPQQNISDSSIKNNSIHSDEVNPEVRPDLTPSNENEESKRSAPEIALKEKESTSQDESNREAEEAPISTNYSFPSSSLEDQPDKNVQSSAVENKNKHTNLVTASFNLTKPMKSFIRRNGLRVQESVTDETDFVILGSPPLRRTHKFLLATSLGIPLVSSQYLTDCIKSGKVLDFRSYKYKDEEAEAKWGFRLDDIHRRTCFNGKRLYITKAIRDSMVGDSIHGLYSILETSGAEIVGDIKRAQEKDTIILAQPDNDQEGRNMSATGLNVYKIELVALSILRDRIDFDEFLIDYDADSPTKVIGKRNVSKASRTGQGRKRSSRSSWNKPSAKEQRT
B1: the binding result in assay [1] and in assay [2] was “no binding” each time.

B2: Mdb1-K434M (His6-tagged recombinant Mdb1) (protein, UniProt O14079 1-624)
chain: MEIQFGNQRCRMVNSGGFLATDGSHLKEMETDDVLVEFLNIEHQLFIRNIRAIVKIADTTVLPSASDKKLLYYVFDETRVRINDTPVIFSKLEEDNANVNEGSKMGVMTVPNTPQKPNLQQQKFEAINANEDQIDYSSNLEQNYNSLIRQGSDQVIPLSRFASEKSALELEKELFSERIPESQSAAEPVLKVENSENDLDEKLVLDGQHVEGDHSSDTEEEVVSEDQKQLNKTDDESTFIESHQIYIQGETKSPSSVSQSLSGDPSLKPAEVFDRKQSAEINSPIEKDVNPQQNISDSSIKNNSIHSDEVNPEVRPDLTPSNENEESKRSAPEIALKEKESTSQDESNREAEEAPISTNYSFPSSSLEDQPDKNVQSSAVENKNKHTNLVTSSFNLTKPMKSFIRRNGLRVQESVTDETDFVILGSPPLRRTHMFLLATSLGIPLVSSQYLTDCIKSGKVLDFRSYKYKDEEAEAKWGFRLDDIHRRTCFNGKRLYITKAIRDSMVGDSIHGLYSILETSGAEIVGDIKRAQEKDTIILAQPDNDQEGRNMSATGLNVYKIELVALSILRDRIDFDEFLIDYDADSPTKVIGKRNVSKASRTGQGRKRSSRSSWNKPSAKEQRT
As for B2, the binding result in assay [1] and in assay [2] was “no binding” throughout.
